According to paper PMC5028767:
Results are given in words; binding and its absence hold for the method and conditions named. Some binding calls cover weakened binding; strength is not graded here. Sequences can lack the tags named with a protein.

Target: C. albicans Cdc7 (CaCdc7) fused with the Gal4 DNA binding domain (Candida albicans)
Assay: two-hybrid; Gal4 system; BD-CaCdc7 (pGBKT7, Y187) and AD-CaDbf4 (pACT2, AH109) in mated diploid S. cerevisiae; growth on SD lacking leucine, tryptophan and histidine with 2.5 mM 3-AT, and up to 20 mM 3-AT; HIS3 reporter

B1: C. albicans Dbf4 (CaDbf4) fused with the Gal4 activation domain (protein, UniProt Q5A5B4 1-506)
chain: MSKVEEHESVNNLKRKFPSLAKPRQPLKETNSNIPSPHKRAKIESPSKQQSTQQPQQQPQPQPQPQPQQEKATHKPKKSSHQSKNNDKLAGDEMHEWQQSWRRIMKSSIVYFEGDQQSLEYRKAHKLLRLVGCKVTPFYDNNVTIIISKRPYDSKTEYSPHDIFSNVSKASIKVWNYDKVFRFLKHLGINIQTGVDELAVNTHTILPPSLTNNNEKPDLYNLLKEEKIYGSTDRDPNAKRDDLHYLGKNYLYVYDLTQTVRPIAIREWSDHYPVMQLSLDGKCPFIEDPTDQNSERKRLKRLRKFEANQAHREALRLATYKMINGISMSVHGFTATSTSTDKVDEEEDSTVKEPSEDPRFRQPLNRNSSCMQSKAFEAMASGYNGASNAVQPSMDSNLNSAAAMAGGNGLGPALSQVPSKQLNNLKRRILMKKKTTNTTEKKDKEHASGYCENCRVKYTNFDEHIMTNRHRNFACDDRNFQDIDELIASLRERKSLGNVISNGDYV
binding: binds
